Taken from: PubChem BioAssay AID1159594 (NIAID, 2016)
Here is a random part of 756 deposited reagents. In the full data, 130 (17%) are marked active. 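Active calls cover both falls and rises of reporter activity; each row reflects one siRNA, not a gene-level verdict.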 Reagent sequences are not shown. The record does not give: the amount of reagent.

Assay: 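Genes required for a TNF reporter response to diacyl lipopeptide stimulation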
Cells: human THP-1 B5 reporter cells, PMA-differentiated into macrophage-like cells
Reagent: single siRNA against human genes
Duration: 48 to 72 hours after siRNA transfection; ligand exposure 4 hours
Treatment: Pam2CSK4 (TLR2/6 agonist) stimulation for 4 hours before lysis; dose not given
Measured: 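Robust z-score, relative to negative controls, of the firefly/renilla ratio from a TNF promoter reporter, after per-plate median/MAD scaling, mean of replicate screens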
Reading the numbers: TNF reporter z-score: higher = stronger TNF promoter reporter activity
Rule for the call: 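Active when the mean z-score across replicates is at or beyond ±1.5 in either direction, matching a depositor grade of 50 or higher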
Calls: active = z-score beyond ±1.5 (either direction); inactive = z-score within ±1.5

Against TLR1 (GeneID 7096) [SID303070438], the values are TNF reporter z-score, replicate mean 2.39; active. After knock-down of TLR1 (GeneID 7096) [SID303070439], the record shows TNF reporter z-score, replicate mean -0.323; inactive. After knock-down of TLR1 (GeneID 7096) [SID303070440] the results were TNF reporter z-score, replicate mean -0.51; inactive. TLR1 (GeneID 7096) [SID303070441] showed TNF reporter z-score, replicate mean 0.934; inactive. TLR1 (GeneID 7096) [SID303070442] scored TNF reporter z-score, replicate mean -1.18; inactive. Against TLR1 (GeneID 7096) [SID303070443] the deposit lists TNF reporter z-score, replicate mean -0.207; inactive.

Against IL1B (GeneID 3553) [SID303071080], the values are TNF reporter z-score, replicate mean 0.418; inactive. With knock-down of IL1B (GeneID 3553) [SID303071081], the record shows TNF reporter z-score, replicate mean -0.801; inactive. IL1B (GeneID 3553) [SID303071082] scored TNF reporter z-score, replicate mean -1.41; inactive. After knock-down of IL1B (GeneID 3553) [SID303071083], the record shows TNF reporter z-score, replicate mean -0.57; inactive. Depletion of IL1B (GeneID 3553) [SID303071084] came out at: TNF reporter z-score, replicate mean -1.66; active. For IL1B (GeneID 3553) [SID303071085] the deposit lists TNF reporter z-score, replicate mean -0.916; inactive.

Silencing of IL33R (GeneID 9173) [SID303071134] came out at: TNF reporter z-score, replicate mean -0.647; inactive. IL33R (GeneID 9173) [SID303071135] showed TNF reporter z-score, replicate mean -1.4; inactive. For IL33R (GeneID 9173) [SID303071136], the values are TNF reporter z-score, replicate mean 0.0424; inactive. For IL33R (GeneID 9173) [SID303071137], the values are TNF reporter z-score, replicate mean 0.45; inactive. Against IL33R (GeneID 9173) [SID303071138] the deposit lists TNF reporter z-score, replicate mean -2.35; active. After knock-down of IL33R (GeneID 9173) [SID303071139] the results were TNF reporter z-score, replicate mean -0.329; inactive.

After knock-down of ELK1 (GeneID 2002) [SID303070984], the screen gave TNF reporter z-score, replicate mean -0.334; inactive. ELK1 (GeneID 2002) [SID303070985] scored TNF reporter z-score, replicate mean -2.57; active. For ELK1 (GeneID 2002) [SID303070986], the entry reads TNF reporter z-score, replicate mean -1.42; inactive. ELK1 (GeneID 2002) [SID303070987] scored TNF reporter z-score, replicate mean -0.418; inactive. Knock-down of ELK1 (GeneID 2002) [SID303070988] gave: TNF reporter z-score, replicate mean -0.34; inactive. ELK1 (GeneID 2002) [SID303070989] gave TNF reporter z-score, replicate mean 0.135; inactive.

NFKBIB (GeneID 4793) [SID303070636] scored TNF reporter z-score, replicate mean -0.619; inactive. NFKBIB (GeneID 4793) [SID303070637] gave TNF reporter z-score, replicate mean -0.794; inactive. For NFKBIB (GeneID 4793) [SID303070638], the values are TNF reporter z-score, replicate mean -1.19; inactive. Against NFKBIB (GeneID 4793) [SID303070639], the entry reads TNF reporter z-score, replicate mean -0.244; inactive. NFKBIB (GeneID 4793) [SID303070640] showed TNF reporter z-score, replicate mean 0.391; inactive. With knock-down of NFKBIB (GeneID 4793) [SID303070641], the record shows TNF reporter z-score, replicate mean -0.162; inactive.

With knock-down of PIK3R3 (GeneID 8503) [SID303070924], the record shows TNF reporter z-score, replicate mean 1.24; inactive. With knock-down of PIK3R3 (GeneID 8503) [SID303070925], the screen gave TNF reporter z-score, replicate mean -0.78; inactive. Knock-down of PIK3R3 (GeneID 8503) [SID303070926] resulted in: TNF reporter z-score, replicate mean -0.582; inactive. With knock-down of PIK3R3 (GeneID 8503) [SID303070927], the screen gave TNF reporter z-score, replicate mean -0.399; inactive. With knock-down of PIK3R3 (GeneID 8503) [SID303070928], the record shows TNF reporter z-score, replicate mean -0.969; inactive. For PIK3R3 (GeneID 8503) [SID303070929] the deposit lists TNF reporter z-score, replicate mean -1.94; active.

Silencing of MAPK13 (GeneID 5603) [SID303070780] came out at: TNF reporter z-score, replicate mean -1.96; active. With knock-down of MAPK13 (GeneID 5603) [SID303070781], the screen gave TNF reporter z-score, replicate mean -1.66; active. For MAPK13 (GeneID 5603) [SID303070782], the values are TNF reporter z-score, replicate mean -2.11; active. MAPK13 (GeneID 5603) [SID303070783] gave TNF reporter z-score, replicate mean 0.447; inactive. After knock-down of MAPK13 (GeneID 5603) [SID303070784] the results were TNF reporter z-score, replicate mean -0.959; inactive. With knock-down of MAPK13 (GeneID 5603) [SID303070785] the results were TNF reporter z-score, replicate mean -1.63; active.

ARF6 (GeneID 382) [SID303070522] scored TNF reporter z-score, replicate mean 0.349; inactive. Silencing of ARF6 (GeneID 382) [SID303070523] resulted in: TNF reporter z-score, replicate mean 0.552; inactive. Against ARF6 (GeneID 382) [SID303070524], the values are TNF reporter z-score, replicate mean 0.552; inactive. Knock-down of ARF6 (GeneID 382) [SID303070525] came out at: TNF reporter z-score, replicate mean -1.85; active. For ARF6 (GeneID 382) [SID303070526], the values are TNF reporter z-score, replicate mean -0.271; inactive. For ARF6 (GeneID 382) [SID303070527], the entry reads TNF reporter z-score, replicate mean 0.41; inactive.
